PubChem BioAssay AID1259254 | NCATS – 2017
Aim: 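Finding genes that stop cells copying their DNA twice in one cycle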 (primary screen). Cells: human HCT116 colorectal cancer cells. Reagents: single siRNA against human genes. Timing: 3 days. Measured: 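Imaged Hoechst DNA stain sorts each cell into a cycle phase by DNA amount; per plate, G2 fraction set to 0% for non-targeting and 100% for GMNN siRNA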. Reading the numbers: G2 robust z-score: higher = more G2 cells, more excess DNA replication. Active means: 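Active siRNAs have a G2 robust z of 5 or more median absolute deviations over the median, which in these data means about 38% or higher of GMNN control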.
The deposit covers about 59,000 reagents; shown is a part drawn at random. In the full data, about 1,550 (2.6%) got an active call. 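G2 share is only a proxy for re-replication; each gene was hit by three separate siRNAs, and active genes were retested.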 Entries without a mark were called inactive. Reagents against one gene are numbered here. Not all columns of the deposit are shown. Reagent sequences are not shown. The record does not give: the amount of reagent.

{"target gene": "FBXW5", "reagent no.": 1, "G2 robust z-score": 1.29}
{"target gene": "FBXW5", "reagent no.": 2, "G2 robust z-score": -0.961}
{"target gene": "FBXW5", "reagent no.": 3, "G2 robust z-score": 2.75}
{"target gene": "SLC47A1", "reagent no.": 1, "G2 robust z-score": 0.24}
{"target gene": "SLC47A1", "reagent no.": 2, "G2 robust z-score": -0.677}
{"target gene": "SLC47A1", "reagent no.": 3, "G2 robust z-score": 0.0192}
{"target gene": "RIC8B", "reagent no.": 1, "G2 robust z-score": 0.467}
{"target gene": "RIC8B", "reagent no.": 2, "G2 robust z-score": 0.00729}
{"target gene": "RIC8B", "reagent no.": 3, "G2 robust z-score": -0.729}
{"target gene": "MIR4453HG", "reagent no.": 1, "G2 robust z-score": -0.544}
{"target gene": "MIR4453HG", "reagent no.": 2, "G2 robust z-score": -1}
{"target gene": "MIR4453HG", "reagent no.": 3, "G2 robust z-score": 1.63}
{"target gene": "ZNF512", "reagent no.": 1, "G2 robust z-score": 0.237}
{"target gene": "ZNF512", "reagent no.": 2, "G2 robust z-score": 0.284}
{"target gene": "ZNF512", "reagent no.": 3, "G2 robust z-score": -0.642}
{"target gene": "SCLT1", "reagent no.": 1, "G2 robust z-score": -0.143}
{"target gene": "SCLT1", "reagent no.": 2, "G2 robust z-score": -0.446}
{"target gene": "SCLT1", "reagent no.": 3, "G2 robust z-score": 1.1}

Records listed so far whose gene name begins with R or r (3):
{"target gene": "RIC8B", "reagent no.": 1, "G2 robust z-score": 0.467}
{"target gene": "RIC8B", "reagent no.": 2, "G2 robust z-score": 0.00729}
{"target gene": "RIC8B", "reagent no.": 3, "G2 robust z-score": -0.729}
